Data as given in patent US20140363384A1, “COMBINATION THERAPY FOR COPD” (CHIESI FARMACEUTICI S.p.A., priority 2009, published 2014).

Assay: Titration of acid content (1M HCl) in triple combination formulations, with and without oxygen removal
Conditions: triple combination with 1M HCl 0.191 to 0.254 μg/μl; 3 months at 25° C./60% RH
Description: In each test pair of samples, one can has its oxygen removed by vacuum crimping in order to investigate the impact of oxygen on the degradation process. After 3 months at 25° C./60% RH, the samples are analyzed for residual can content of active ingredients and major impurities/degradation products.

With `C[N+]1(C)CCC(OC(=O)C(O)(c2ccccc2)C2CCCC2)C1.[Cl-]` (stereo not shown) [Gly, 3-[(cyclopentylhydroxyphenyl-acetyl)oxy]-1,1-dimethylpyrrolidinium chloride] the “stability of the component (residual can content, degradation)” value was “stable over the 3 month period”.
